From the supplement of paper PMC10735217 come the findings set out here.

Structures are written as SMILES. Where a name gives a salt, the structure may show the parent alone. The list shows a part of the results. This data set is noisy: repeats of one test often differ as much as different tests do.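 Human kidney-derived cells stably carry a construct in which eight TEAD-binding elements drive luciferase, measured by luminescence in a drug-repurposing library screen. A hit is any compound whose signal exceeds the plate mean by more than five robust Z scores.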

The test has as its system HEK293A TEAD-LUC reporter. The experiment in a line: TEAD-luciferase reporter activity (YAP activation), robust Z score vs plate; higher = stronger YAP/TEAD activation. To be noted: 24 h. In general terms: A reporter such as luciferase makes a cellular process visible.

In the case of `O=C(Oc1ccc(Br)cc1)N1CCN2CCC1C2` (stereo not drawn), the TEAD-luciferase reporter activity was inactive: -0.675 (compound concentration: 200 nM), inactive: 4.11 (compound concentration: 2 uM) and inactive: 0.905 (compound concentration: 10 uM).

For `CC(=O)Nc1ccc(OC[C@](C)(O)C(=O)Nc2ccc([N+](=O)[O-])c(C(F)(F)F)c2)cc1` [Andarine], the TEAD-luciferase reporter activity reads like this: (compound concentration: 200 nM) inactive: -0.766; (compound concentration: 2 uM) inactive: -1.44; (compound concentration: 10 uM) inactive: 2.7.

`COc1ccccc1C(=O)N1CCCC1C(=O)N1CCC(N2CCCC2=O)CC1` (stereo not drawn): the TEAD-luciferase reporter activity by setting is: (compound concentration: 200 nM) inactive: -2.3; (compound concentration: 10 uM) inactive: 0.663.

As for `CCN1C(=O)OC(C)(C)C1=O`, the TEAD-luciferase reporter activity is inactive: -1.04 (compound concentration: 200 nM), inactive: -1.69 (compound concentration: 2 uM) and inactive: 1.51 (compound concentration: 10 uM).

`CCC1(CC)C(=O)C=CNC1=O`: the TEAD-luciferase reporter activity (compound concentration: 200 nM) is inactive: -0.327, the TEAD-luciferase reporter activity (compound concentration: 2 uM) was inactive: -1.11 and the TEAD-luciferase reporter activity (compound concentration: 10 uM) was inactive: 1.47.

On to `CCN(CC)CCN1C(=O)[C@@](O)(c2ccccc2Cl)c2c1cc(C(N)=O)cc2C(F)(F)F`, for which the TEAD-luciferase reporter activity is inactive: 1.17 (compound concentration: 200 nM), inactive: -1.55 (compound concentration: 2 uM) and inactive: 0.451 (compound concentration: 10 uM).

In the case of `C[C@]12CC[C@H](O)CC1=CC[C@@H]1[C@@H]2CC[C@]2(C)C(=O)CC[C@@H]12` [Prasterone], under “compound concentration: 2 uM”, the TEAD-luciferase reporter activity was inactive: 0.19.

Consider `C[C@]12CC[C@H](O)CC1=CC[C@@H]1[C@@H]2CC[C@]2(C)C(=O)CC[C@@H]12`, for which the TEAD-luciferase reporter activity is, setting by setting: (compound concentration: 200 nM) inactive: 1.71; (compound concentration: 10 uM) inactive: -0.409.

Take `CCCN1CCCC2c3cccc(O)c3OCC21` (stereo not drawn): the TEAD-luciferase reporter activity (compound concentration: 200 nM) is inactive: -0.0476, the TEAD-luciferase reporter activity (compound concentration: 2 uM) is inactive: -0.481 and the TEAD-luciferase reporter activity (compound concentration: 10 uM) is inactive: -1.86.

For `COC[C@H]1OC(=O)c2coc3c2[C@@]1(C)C1=C(C3=O)[C@@H]2CCC(=O)[C@@]2(C)C[C@H]1OC(C)=O` [Wortmannin], the TEAD-luciferase reporter activity (compound concentration: 200 nM) was inactive: 0.445, the TEAD-luciferase reporter activity (compound concentration: 2 uM) is inactive: -2.08 and the TEAD-luciferase reporter activity (compound concentration: 10 uM) is inactive: 0.687.

Regarding `C=CCN1CCC2(C)c3cc(O)ccc3CC1C2C` (stereo not drawn), the TEAD-luciferase reporter activity reads like this: (compound concentration: 200 nM) inactive: -0.0748; (compound concentration: 2 uM) inactive: -0.125; (compound concentration: 10 uM) inactive: 0.127.

On to `Cc1cc(N(CCOS(C)(=O)=O)CCOS(C)(=O)=O)ccc1C=O`, for which the TEAD-luciferase reporter activity reads like this: (compound concentration: 200 nM) inactive: 0.683; (compound concentration: 2 uM) inactive: -1.06; (compound concentration: 10 uM) inactive: 0.713.

Regarding `O=C(N[C@H]1CN2CCC1CC2)c1cc2cccc(Cl)c2s1` [encenicline hydrochloride], the TEAD-luciferase reporter activity is, setting by setting: (compound concentration: 200 nM) inactive: -1.12; (compound concentration: 2 uM) inactive: -1.11; (compound concentration: 10 uM) inactive: -0.128.

As to `CCCN(CCC)C1CCc2cccc(CS(=O)(=O)NC)c2C1` (stereo not drawn), the TEAD-luciferase reporter activity (compound concentration: 200 nM) was inactive: -0.941, the TEAD-luciferase reporter activity (compound concentration: 2 uM) is inactive: -0.519 and the TEAD-luciferase reporter activity (compound concentration: 10 uM) was inactive: -0.452.

In the case of `CCCCCCC(C)(C)c1cc(O)c2c(c1)OC(C)(C)[C@H]1CC=C(CO)C[C@H]21` [Dexanabinol], the TEAD-luciferase reporter activity was inactive: -1.04 (compound concentration: 200 nM) and inactive: 0.0203 (compound concentration: 10 uM).

Turning to `CC[C@@H](C(N)=O)N1CCCC1=O` [Levetiracetam], the TEAD-luciferase reporter activity (compound concentration: 2 uM) was inactive: -0.858.

For the compound `CC[C@@H](C(N)=O)N1CCCC1=O`, the TEAD-luciferase reporter activity (compound concentration: 200 nM) is inactive: -0.142 and the TEAD-luciferase reporter activity (compound concentration: 10 uM) is inactive: 0.64.
